# In all, about 400,000 compounds went through this assay and about 5,500 (1.4%) were called active. The inconclusive results got no clear call from the source; some entries with a clear call stand among them for comparison. Calls come from the whole dose curve; as a rule, active = well fitted cell-killing curve with a large enough effect; inconclusive = small, poorly fitted or top-dose-only effect, or effect the other way; inactive = flat fitted curve, though single readings scatter. Where the call is inconclusive, the potency comes from a doubtful curve fit.
# Experiment: qHTS assay for MDR1-selective chemotherapeutics: Primary screen using the parental adenocarcinoma cell KB-3-1; note: nearly all actives have a fitted effect of over 60% in size
# Settings: KB-3-1 viability, CellTiter-Glo ATP luminescence, 72 h; activity change, negative = cytotoxic: at 46.1 µM (top of the series)
# In short: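 Screening of KB-3-1 cells (DMEM, 10% FBS, phenol-red free) ran from lowest to highest compound concentration; after 72 h at 37 °C viability was read luminescently and curves fitted.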
# % is set by controls: 0 for no effect and ±100 for the full control effect; potency is the fitted concentration of half-maximal effect.
Compound,Potency,"activity change, negative = cytotoxic"
O=C(NCCSCc1c(F)cccc1Cl)c1ccc(CN2CCOCC2)cc1,"inconclusive: 29.1 µM [cytotoxic, single point]",
CCCCNc1nc(NCc2ccccc2)nc2ccccc12,"inconclusive: 29.1 µM [cytotoxic, single point]",
c1ccc(Cc2nnc3sc(-c4ccc5c(c4)OCCO5)nn23)cc1,"inconclusive: 29.1 µM [cytotoxic, single point]",
C[C@]12CC[C@@H]3c4cc(O)c(O)cc4CC[C@H]3[C@@H]1CC[C@@H]2O,active: 6.51 µM,
CCC(C)(C)n1nnnc1C(c1cc2cc(OC)ccc2[nH]c1=O)N1CCc2ccccc21 (stereo unspecified),"inconclusive: 6.51 µM [cytotoxic, partial curve, poor fit]",
OC(CNC1CCCC1)COc1ccc(-c2ccccc2)cc1 (stereo unspecified),active: 20.6 µM,
COc1cc(NC(=O)Nc2nc(C(N)Cc3ccc(C(F)(F)F)cc3)cs2)cc(OC)c1OC (stereo unspecified),"inconclusive: 29.1 µM [cytotoxic, single point]",
CN(CC(=O)Nc1ccc(OC(F)(F)F)cc1)C(=O)Cc1c(Cl)cccc1Cl,inactive,
CCN=c1scc(C)n1/N=C/c1cc(Br)c(O)c(Br)c1,"inconclusive: 13 µM [cytotoxic, single point]",
Cc1nc(-n2nnc3ccccc32)c2c3c(sc2n1)CCCC3,"inconclusive: 20.6 µM [cytotoxic, single point]",
COc1cccc(C(NC(C)=O)c2nc(-c3ccoc3)cs2)c1 (stereo unspecified),"inconclusive: 23.1 µM [cytotoxic, single point]",
COc1cccc(C(=O)Nc2ccc3c(C)cc(=O)oc3c2)c1,"inconclusive: 29.1 µM [rising, single point]",
CCCCCCCCN1C(=O)[C@H](CC(=O)NCCCOCCCC)C[C@@]2(C(=O)OCC)CCCC=C12,"inconclusive: 18.4 µM [cytotoxic, single point]",
COCCCNC(=O)c1c(N)n(/N=C/c2cccs2)c2nc3ccccc3nc12,inactive,
COc1ccc(OCc2nnc(SCC(=O)N3CCCc4ccccc43)n2-c2ccc(C)cc2)cc1,"inconclusive: 29.1 µM [cytotoxic, single point]",
CN(CC(=O)Nc1ccc(Cl)c(C(F)(F)F)c1)C(=O)c1cc(-c2ccncc2)nc2ccccc12,"inconclusive: 29.1 µM [cytotoxic, single point]",
c1ccc(-c2oc3ncnc(NCCCN4CCOCC4)c3c2-c2ccccc2)cc1,"inconclusive: 29.1 µM [cytotoxic, single point]",
C[C@H](CO)N1C[C@H](C)[C@H](CN(C)Cc2cccc(O)c2)OCc2ccccc2-c2c(n(C)c3ccccc23)C1=O,"inconclusive: 29.1 µM [cytotoxic, single point]",
COc1ccc(C(=O)Oc2cccc(Nc3ncnc4ccccc34)c2)cc1OC,"inconclusive: 14.6 µM [rising, partial curve]",
O=C(Nc1ccc(OC(F)(F)F)cc1)c1ccc2c(c1)no[n+]2[O-],"inconclusive: 16.4 µM [cytotoxic, single point]",
COc1cc(-c2nc(-c3ccccc3)c(-c3cccs3)[nH]2)cc(OC)c1OC,inactive,
Cc1ccc(S(=O)(=O)N2CCCCC2)cc1NC(=O)CCCOc1ccccc1,"inconclusive: 0.184 µM [rising, full curve]",

# Shown with bars between the fields: two of the compounds above.
Compound | Potency | activity change, negative = cytotoxic
c1ccc(Cc2nnc3sc(-c4ccc5c(c4)OCCO5)nn23)cc1 | inconclusive: 29.1 µM [cytotoxic, single point] | 
C[C@]12CC[C@@H]3c4cc(O)c(O)cc4CC[C@H]3[C@@H]1CC[C@@H]2O | active: 6.51 µM | 

# Next part

Compound,Potency,"activity change, negative = cytotoxic"
Cc1ccc(NC(=O)C(=O)NCC(c2cccnc2)N2CCN(c3ccccc3F)CC2)cc1Cl (stereo unspecified),inactive,
CCc1ccccc1Nc1nn2c(=O)c3ccc(C(=O)NC(C)c4ccccc4)cc3nc2s1 (stereo unspecified),"inconclusive: 25.9 µM [cytotoxic, single point]",
COc1ccccc1NC(=O)c1sc2nc(C)c(C(=O)Nc3ccc(C)cc3C)c(-c3cccs3)c2c1N,inactive,
CN(C)S(=O)(=O)c1ccc2c(c1)nc(CCC(=O)Nc1ccc3c(c1)OCO3)n2C,inactive,
O=C(N/N=C/c1c(O)n(-c2ccccc2Cl)c(=O)c2ccccc12)C1COc2ccccc2O1 (stereo unspecified),"inconclusive: 20.6 µM [cytotoxic, single point]",
Cc1onc(-c2ccccc2)c1C(=O)NNC(=S)NC(=O)/C=C/c1ccccc1,"inconclusive: 16.4 µM [cytotoxic, single point]",
CCCCn1nnnc1C(c1cc2ccccc2o1)N(Cc1ccccc1)Cc1ccccc1 (stereo unspecified),"inconclusive: 14.6 µM [cytotoxic, single point]",
Cc1ccc(CN2CCN(Cc3cccc4c3OCO4)CC2CCO)cc1 (stereo unspecified),inactive,
COc1ccc(N=Nc2c(C)[nH][nH]c2=O)cc1,"inconclusive: 23.1 µM [cytotoxic, single point]",
CCOc1ccccc1C(=O)NC(C)c1ccc2c(c1)OCO2 (stereo unspecified),"inconclusive: 25.9 µM [cytotoxic, single point]",
NC(N)=NS(=O)(=O)c1ccc(NC(=S)NC(=O)/C=C/c2ccco2)cc1,"inconclusive: 25.9 µM [rising, single point]",
CCOc1cc(S(=O)(=O)NCc2ccncc2)ccc1Cl,"inconclusive: 0.326 µM [cytotoxic, full curve]",
CCOC(=O)Cn1c(=O)oc2cc(S(=O)(=O)NCc3cccs3)ccc21,"inconclusive: 29.1 µM [cytotoxic, single point]",
CCCNC(=O)C1CC(c2ccccc2[N+](=O)[O-])=NO1 (stereo unspecified),"inconclusive: 0.517 µM [rising, partial curve]",
CSc1nc(-c2ccccc2)c(-c2ccccc2)[nH]1,"inconclusive: 20.6 µM [cytotoxic, single point]",
OCCCn1c(-c2ccccc2)csc1=Nc1ccccc1,inactive,
N/C(=N\OC(=O)CCC(=O)O)c1ncc(C(F)(F)F)cc1Cl,"inconclusive: 0.731 µM [rising, partial curve, poor fit]",
Cc1cccc(C(=O)Nc2scc(CC(C)C)c2C(=O)O)c1,"inconclusive: 16.4 µM [cytotoxic, single point]",
CCC(=O)Nc1cccc(C(=O)/C=C/c2ccccc2)c1,"inconclusive: 10.3 µM [cytotoxic, partial curve, poor fit]",
COC(=O)c1ccc(N)c(N=CC2=C(O)CC(C)(C)CC2=O)c1,,inconclusive: 38.1%
CC(=O)/C(=C/c1ccccc1)C(=O)Nc1ccccc1C,"inconclusive: 29.1 µM [cytotoxic, partial curve, poor fit]",
Nc1nc(CN2CCN(Cc3ccccc3)CC2)nc(Nc2ccccc2)n1,"inconclusive: 18.4 µM [cytotoxic, single point]",

# Three entries picked at random from the list so far, as already listed:
Compound,Potency,"activity change, negative = cytotoxic"
COc1cc(-c2nc(-c3ccccc3)c(-c3cccs3)[nH]2)cc(OC)c1OC,inactive,
c1ccc(-c2oc3ncnc(NCCCN4CCOCC4)c3c2-c2ccccc2)cc1,"inconclusive: 29.1 µM [cytotoxic, single point]",
CN(CC(=O)Nc1ccc(OC(F)(F)F)cc1)C(=O)Cc1c(Cl)cccc1Cl,inactive,

# Following part:

Compound,Potency,"activity change, negative = cytotoxic"
Brc1ccc(CNc2ccc3ncccc3c2)cc1,"inconclusive: 13 µM [cytotoxic, partial curve]",
Cc1ccc2c(c1)ncc[n+]2CC(=O)c1ccc(Cl)cc1Cl,inactive,
CCOc1ccc(-c2nc(SCC(=O)c3ccccc3)n[nH]2)cc1,"inconclusive: 18.4 µM [cytotoxic, single point]",
O=[N+]([O-])c1cccnc1N/N=C/c1ccccc1O,active: 1.84 µM,
Cc1cc(NC(=O)CSc2nc(C3CCCCC3)nc3ccccc23)no1,"inconclusive: 20.6 µM [cytotoxic, single point]",
CCOC(=O)c1c(NC(=O)c2ccc(S(=O)(=O)N3CCC(C)CC3)cc2)sc2c1CCN(CC)C2,inactive,
C#CC[N+](C)(C)C(C#Cc1ccccc1)CC=C (stereo unspecified),"inconclusive: 20.6 µM [cytotoxic, single point]",
Cc1cc(C)nc(NC(=NCCc2c[nH]c3ccc(Cl)cc23)NC(=O)c2ccccc2C)n1,"inconclusive: 23.1 µM [cytotoxic, single point]",
COc1ccc(NC(=S)N2CCN(C)CC2)cc1,"inconclusive: 0.0411 µM [rising, full curve]",
CCC(=O)N1CCN(c2ccc(NC(=O)c3cc4ccccc4o3)cc2Cl)CC1,"inconclusive: 25.9 µM [cytotoxic, single point]",
CCCCNc1c(-c2ccc(SC(C)CC)cc2)nc2ccc(Cl)cn12 (stereo unspecified),"inconclusive: 18.4 µM [cytotoxic, single point]",
O=C1CC(c2nnc(Cc3ccc(F)cc3Cl)o2)CN1c1ccccc1 (stereo unspecified),inactive,
N#CCSc1ccccc1NC(=O)COC(=O)C1CCN(C(=O)c2ccc(Cl)cc2)CC1,inactive,
Oc1ccc(N=Nc2ccc3c(c2)OCCO3)c2cccnc12,"inconclusive: 2.06 µM [cytotoxic, partial curve, poor fit]",
Cc1cccc(Nc2nnc(-c3ccc(C)c(S(=O)(=O)NCC4CCCO4)c3)c3ccccc23)c1 (stereo unspecified),inactive,
COc1ccc(NS(=O)(=O)c2cccc(C(=O)N/N=C/c3cn(-c4ccccc4)nc3-c3ccc(OC)cc3)c2)cc1,"inconclusive: 14.6 µM [cytotoxic, partial curve, poor fit]",
C=CCn1c(C)cc(C(=O)COc2ccc(C)nc2[N+](=O)[O-])c1C,"inconclusive: 20.6 µM [cytotoxic, single point]",
CC1CCCN(S(=O)(=O)c2cccc(-c3cn4cccnc4n3)c2)C1 (stereo unspecified),,inconclusive: 40.5%
CC(C)(C)c1cnnn1-c1ccc(/C=N/Nc2ccc([N+](=O)[O-])cc2)cc1,"inconclusive: 18.4 µM [cytotoxic, single point]",
C=C(C1=CCN(S(=O)C(C)(C)C)[C@H]1CCO)c1ccccc1 (stereo partly specified),"inconclusive: 0.0184 µM [rising, full curve]",
C=CCn1c(SCC(=O)Nc2cccc(S(N)(=O)=O)c2)nc2sc(C)c(C)c2c1=O,inactive,
CCC(=O)NC(c1ccccc1Cl)c1c(O)ccc2ccccc12 (stereo unspecified),"inconclusive: 29.1 µM [cytotoxic, single point]",
